In PubChem BioAssay AID540276 (National Center for Advancing Translational Sciences (NCATS), 2011):
About 5,400 (1.8%) of roughly 300,000 compounds were called active. Inconclusive means that the source gave no clear call. Such entries were picked first, then a sample of the others. Calls come from the whole dose curve; tested in HEK293 cells. Where the call is inconclusive, the potency comes from a doubtful curve fit.

assay: qHTS for inhibitors of binding or entry into cells for Marburg Virus; conditions: Marburg virus pseudotyped entry inhibition, cell reporter; activity change, negative = inhibition: at 37.8 µM (top of the series) unless noted
% is set by controls: 0 for no effect and ±100 for the full control effect; potency is the fitted concentration of half-maximal effect.

| Structure (SMILES) | Potency | activity change, negative = inhibition |
| --- | --- | --- |
| CC(=O)c1cccc(NC(=O)c2nc(-c3ccccc3)n(-c3cccc(C)c3)n2)c1 | inconclusive: 10 µM [inhibitor, partial curve, poor fit] | – |
| Cc1cccc(C(=O)N/N=C/c2cc(Br)c(Br)o2)c1 | inconclusive: 35.5 µM [inhibitor, partial curve, poor fit] | – |
| CCS(=O)(=O)N1CCc2cc(C(=O)Nc3ccc(OC)cc3OC)ccc21 | inconclusive: 22.4 µM [inhibitor, single point] | – |
| COCc1cccc(C(=O)NC(c2ccccc2)c2ccccc2)c1 | inactive | – |
| O=C(N/N=C/c1ccc(N2CCOCC2)cc1)c1cccs1 | inactive | – |
| COC(=O)c1cc(NC(=O)c2c(Cl)nc3sccn23)cc(C(=O)OC)c1 | inconclusive: 3.98 µM [inhibitor, single point] | – |
| COc1ccc(C(=O)C[n+]2ccc3c(c2)nc(-c2ccc(OC)cc2OC)n3C)cc1 | inactive | – |
| O=C(COC(=O)c1cccnc1)Nc1cccc(Cl)c1 | inconclusive: 0.116 µM [inhibitor, partial curve, poor fit] | – |
| Cc1sc2ncn(CCn3cnc4sc(C)c(C)c4c3=O)c(=O)c2c1C | inconclusive: 28.2 µM [inhibitor, partial curve, poor fit] | – |
| CCN(C(=O)COC(=O)CNS(=O)(=O)c1ccc(SC)c([N+](=O)[O-])c1)C1CCCCC1 | inconclusive: 1.41 µM [activator, partial curve, poor fit] | – |
| C[C@@H](Oc1ccc(Oc2cnc3ccc(Cl)cc3n2)cc1)C(=O)O | – | inconclusive: 0.919% [inhibitor] |
| NS(=O)(=O)c1ccc(CCNc2nc(C(F)(F)F)nc3ccccc23)cc1 | inconclusive: 25.9 µM [inhibitor, single point] | – |
| CN(C)c1ccc(P(=O)(OCc2ccccc2)C(O)c2ccncc2)cc1 (configuration not stated) | inconclusive: 3.16 µM [activator, single point] | – |
| Cc1occc1-c1nnc(SCC(=O)N2CCCCC2)n1C | inactive | – |
| CCOC(=O)Oc1ccc2c(=O)c(Oc3cccc(C)c3)coc2c1 | inactive | – |
| Cc1ccc(-c2csc(NC(=O)CCCc3cccs3)n2)cc1 | inactive | – |
| CCOc1ccc(Nc2ccc3nonc3c2[N+](=O)[O-])cc1 | inconclusive: 35.5 µM [activator, single point] | – |
| COc1ccc(CCn2nnnc2C(c2ccccc2)N2CCN(C)CC2)cc1OC (configuration not stated) | inactive | – |
| Cc1ccc(C(=O)N2c3ccccc3CC2C)o1 (configuration not stated) | inconclusive: 0.355 µM [activator, partial curve, poor fit] | – |
| CC1CCCN(CCCOc2ccc(Cl)cc2Br)C1 (configuration not stated) | inconclusive: 8.2 µM [inhibitor, partial curve, poor fit] | – |
| Cc1ccc(OCc2nnc(-c3ccccc3)o2)cc1 | inconclusive: 3.55 µM [activator, partial curve, poor fit] | – |

| Structure (SMILES) | Potency | activity change, negative = inhibition |
| --- | --- | --- |
| O=C(CCS(=O)(=O)c1ccc(Br)cc1)N1CCN(c2ccc(Cl)cc2)CC1 | inconclusive: 5.8 µM [inhibitor, partial curve, poor fit] | – |
| COCCCN1CCN(C2Cc3ccccc3Sc3ccc(Cl)cc32)CC1 (configuration not stated) | inconclusive: 29.1 µM [inhibitor, single point] | – |
| CC(C)CCNC(=O)c1cn(C)c2ccc(S(=O)(=O)N3CCOCC3)cc2c1=O | inactive | – |
| CCOC(=O)c1ccccc1NC(=O)c1nn(C)c2c1COc1ccccc1-2 | inconclusive: 10 µM [inhibitor, partial curve, poor fit] | – |
| O=C(NC1CCN(Cc2ccccc2)CC1)c1ccc(S(=O)(=O)NCc2ccco2)cc1 | active: 3.55 µM | – |
| Cc1ccc2occ(CC(=O)N3CCN(c4cccc(Cl)c4)CC3)c2c1 | inactive | – |
| COc1cc(S(=O)(=O)NC2CCCCC2)c(C)cc1C | inconclusive: 3.55 µM [inhibitor, partial curve, poor fit] | – |
| NS(=O)(=O)c1cccc(NC(=O)CSc2nc3ccc(Cl)cc3[nH]2)c1 | inconclusive: 28.2 µM [inhibitor, single point] | – |
| COc1ccc(-n2c(CCC(=O)O)ccc2-c2ccccc2)c(OC)c1 | inconclusive: 12.6 µM [activator, single point] | – |
| O=C(N/N=C/C=C\c1ccccc1[N+](=O)[O-])c1cc(-c2ccc3ccccc3c2)n[nH]1 | inconclusive: 10 µM [inhibitor, partial curve, poor fit] | – |
| OC(COc1cccc(OCC(O)CN2CCCC2)c1)CN1CCCC1 (configuration not stated) | inconclusive: 8.2 µM [inhibitor, partial curve] | – |
| Cc1cccc(N(C(=O)c2ccc(CN3CCOCC3)o2)C(C(=O)NC(C)(C)C)c2ccc(F)cc2)c1 (configuration not stated) | inconclusive: 22.4 µM [inhibitor, single point] | – |
| COc1ccc(/C(=C\Nc2ccc(C)c(C)c2)C(C)=O)cc1OC | inconclusive: 2.82 µM [inhibitor, full curve, poor fit] | – |
| Cc1ccc(S(=O)(=O)NCC2CCC(C(=O)NC3CCCCC3)CC2)cc1 (configuration not stated) | inconclusive: 3.55 µM [activator, partial curve, poor fit] | – |
| O=C(Nc1ccccc1)Nc1ccc2ncoc2c1 | inactive | – |
| O=C(NC1CC1)c1cccc(Br)c1 | inconclusive: 0.316 µM [activator, partial curve, poor fit] | – |
| COc1ccc(CCNCC(O)COc2cccc(Br)c2)cc1 (configuration not stated) | inconclusive: 7.94 µM [inhibitor, partial curve, poor fit] | – |
| CC(=O)Nc1cccc(OCc2ccc(F)cc2)c1 | inconclusive: 35.5 µM [activator, single point] | – |
| COc1ccccc1CC(=O)O/N=C(\N)Cc1cccc2ccccc12 | inconclusive: 0.116 µM [inhibitor, full curve, poor fit] | – |
| Cc1c(CCC(=O)N2CCC(C(=O)NCCCCCC(=O)O)CC2)c(=O)oc2cc3oc4c(c3cc12)CCCC4 | inconclusive: 3.55 µM [inhibitor, single point] | – |
| COC(=O)c1cccc(NC(=O)CCCN2C(=O)NC3(CCCC3)C2=O)c1 | inconclusive: 0.562 µM [inhibitor, single point] | – |

An excerpt from further up:

| Structure (SMILES) | Potency | activity change, negative = inhibition |
| --- | --- | --- |
| Cc1ccc(S(=O)(=O)NCC2CCC(C(=O)NC3CCCCC3)CC2)cc1 (configuration not stated) | inconclusive: 3.55 µM [activator, partial curve, poor fit] | – |
| O=C(Nc1ccccc1)Nc1ccc2ncoc2c1 | inactive | – |
